Laboratory results published in the supplement of paper PMC10849652.
This is one part of the list.

Chains of the proteins cited; added tags and fusions are not shown. Lines headed by an entry give the natural chain unless they say otherwise; changes in a name come on top.
UniProt P08670, whole entry, looked up: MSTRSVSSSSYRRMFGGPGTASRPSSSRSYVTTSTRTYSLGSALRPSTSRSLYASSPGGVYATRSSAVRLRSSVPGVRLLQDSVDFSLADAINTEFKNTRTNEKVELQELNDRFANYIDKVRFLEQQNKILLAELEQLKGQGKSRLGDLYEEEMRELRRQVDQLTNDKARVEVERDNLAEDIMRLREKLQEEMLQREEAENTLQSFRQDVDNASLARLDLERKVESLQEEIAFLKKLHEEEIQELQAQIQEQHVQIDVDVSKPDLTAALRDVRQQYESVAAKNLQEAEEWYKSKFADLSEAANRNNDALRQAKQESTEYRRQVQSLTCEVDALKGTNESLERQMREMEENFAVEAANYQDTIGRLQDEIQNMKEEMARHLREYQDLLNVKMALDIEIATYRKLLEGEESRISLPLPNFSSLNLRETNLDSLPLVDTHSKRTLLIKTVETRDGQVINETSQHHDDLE
UniProt P23381: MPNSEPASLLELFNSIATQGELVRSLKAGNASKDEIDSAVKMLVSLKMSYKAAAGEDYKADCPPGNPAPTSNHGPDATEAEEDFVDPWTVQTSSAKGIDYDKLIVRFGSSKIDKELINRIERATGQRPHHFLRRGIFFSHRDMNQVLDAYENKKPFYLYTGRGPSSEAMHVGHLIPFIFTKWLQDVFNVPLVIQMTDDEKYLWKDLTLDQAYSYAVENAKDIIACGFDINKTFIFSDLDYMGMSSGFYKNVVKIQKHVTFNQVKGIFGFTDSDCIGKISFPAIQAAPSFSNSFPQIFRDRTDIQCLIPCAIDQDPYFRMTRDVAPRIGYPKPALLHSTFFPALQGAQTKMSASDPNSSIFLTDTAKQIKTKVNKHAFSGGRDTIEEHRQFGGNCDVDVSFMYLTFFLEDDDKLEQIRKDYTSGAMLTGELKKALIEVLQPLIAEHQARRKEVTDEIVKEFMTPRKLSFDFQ
UniProt Q709C8: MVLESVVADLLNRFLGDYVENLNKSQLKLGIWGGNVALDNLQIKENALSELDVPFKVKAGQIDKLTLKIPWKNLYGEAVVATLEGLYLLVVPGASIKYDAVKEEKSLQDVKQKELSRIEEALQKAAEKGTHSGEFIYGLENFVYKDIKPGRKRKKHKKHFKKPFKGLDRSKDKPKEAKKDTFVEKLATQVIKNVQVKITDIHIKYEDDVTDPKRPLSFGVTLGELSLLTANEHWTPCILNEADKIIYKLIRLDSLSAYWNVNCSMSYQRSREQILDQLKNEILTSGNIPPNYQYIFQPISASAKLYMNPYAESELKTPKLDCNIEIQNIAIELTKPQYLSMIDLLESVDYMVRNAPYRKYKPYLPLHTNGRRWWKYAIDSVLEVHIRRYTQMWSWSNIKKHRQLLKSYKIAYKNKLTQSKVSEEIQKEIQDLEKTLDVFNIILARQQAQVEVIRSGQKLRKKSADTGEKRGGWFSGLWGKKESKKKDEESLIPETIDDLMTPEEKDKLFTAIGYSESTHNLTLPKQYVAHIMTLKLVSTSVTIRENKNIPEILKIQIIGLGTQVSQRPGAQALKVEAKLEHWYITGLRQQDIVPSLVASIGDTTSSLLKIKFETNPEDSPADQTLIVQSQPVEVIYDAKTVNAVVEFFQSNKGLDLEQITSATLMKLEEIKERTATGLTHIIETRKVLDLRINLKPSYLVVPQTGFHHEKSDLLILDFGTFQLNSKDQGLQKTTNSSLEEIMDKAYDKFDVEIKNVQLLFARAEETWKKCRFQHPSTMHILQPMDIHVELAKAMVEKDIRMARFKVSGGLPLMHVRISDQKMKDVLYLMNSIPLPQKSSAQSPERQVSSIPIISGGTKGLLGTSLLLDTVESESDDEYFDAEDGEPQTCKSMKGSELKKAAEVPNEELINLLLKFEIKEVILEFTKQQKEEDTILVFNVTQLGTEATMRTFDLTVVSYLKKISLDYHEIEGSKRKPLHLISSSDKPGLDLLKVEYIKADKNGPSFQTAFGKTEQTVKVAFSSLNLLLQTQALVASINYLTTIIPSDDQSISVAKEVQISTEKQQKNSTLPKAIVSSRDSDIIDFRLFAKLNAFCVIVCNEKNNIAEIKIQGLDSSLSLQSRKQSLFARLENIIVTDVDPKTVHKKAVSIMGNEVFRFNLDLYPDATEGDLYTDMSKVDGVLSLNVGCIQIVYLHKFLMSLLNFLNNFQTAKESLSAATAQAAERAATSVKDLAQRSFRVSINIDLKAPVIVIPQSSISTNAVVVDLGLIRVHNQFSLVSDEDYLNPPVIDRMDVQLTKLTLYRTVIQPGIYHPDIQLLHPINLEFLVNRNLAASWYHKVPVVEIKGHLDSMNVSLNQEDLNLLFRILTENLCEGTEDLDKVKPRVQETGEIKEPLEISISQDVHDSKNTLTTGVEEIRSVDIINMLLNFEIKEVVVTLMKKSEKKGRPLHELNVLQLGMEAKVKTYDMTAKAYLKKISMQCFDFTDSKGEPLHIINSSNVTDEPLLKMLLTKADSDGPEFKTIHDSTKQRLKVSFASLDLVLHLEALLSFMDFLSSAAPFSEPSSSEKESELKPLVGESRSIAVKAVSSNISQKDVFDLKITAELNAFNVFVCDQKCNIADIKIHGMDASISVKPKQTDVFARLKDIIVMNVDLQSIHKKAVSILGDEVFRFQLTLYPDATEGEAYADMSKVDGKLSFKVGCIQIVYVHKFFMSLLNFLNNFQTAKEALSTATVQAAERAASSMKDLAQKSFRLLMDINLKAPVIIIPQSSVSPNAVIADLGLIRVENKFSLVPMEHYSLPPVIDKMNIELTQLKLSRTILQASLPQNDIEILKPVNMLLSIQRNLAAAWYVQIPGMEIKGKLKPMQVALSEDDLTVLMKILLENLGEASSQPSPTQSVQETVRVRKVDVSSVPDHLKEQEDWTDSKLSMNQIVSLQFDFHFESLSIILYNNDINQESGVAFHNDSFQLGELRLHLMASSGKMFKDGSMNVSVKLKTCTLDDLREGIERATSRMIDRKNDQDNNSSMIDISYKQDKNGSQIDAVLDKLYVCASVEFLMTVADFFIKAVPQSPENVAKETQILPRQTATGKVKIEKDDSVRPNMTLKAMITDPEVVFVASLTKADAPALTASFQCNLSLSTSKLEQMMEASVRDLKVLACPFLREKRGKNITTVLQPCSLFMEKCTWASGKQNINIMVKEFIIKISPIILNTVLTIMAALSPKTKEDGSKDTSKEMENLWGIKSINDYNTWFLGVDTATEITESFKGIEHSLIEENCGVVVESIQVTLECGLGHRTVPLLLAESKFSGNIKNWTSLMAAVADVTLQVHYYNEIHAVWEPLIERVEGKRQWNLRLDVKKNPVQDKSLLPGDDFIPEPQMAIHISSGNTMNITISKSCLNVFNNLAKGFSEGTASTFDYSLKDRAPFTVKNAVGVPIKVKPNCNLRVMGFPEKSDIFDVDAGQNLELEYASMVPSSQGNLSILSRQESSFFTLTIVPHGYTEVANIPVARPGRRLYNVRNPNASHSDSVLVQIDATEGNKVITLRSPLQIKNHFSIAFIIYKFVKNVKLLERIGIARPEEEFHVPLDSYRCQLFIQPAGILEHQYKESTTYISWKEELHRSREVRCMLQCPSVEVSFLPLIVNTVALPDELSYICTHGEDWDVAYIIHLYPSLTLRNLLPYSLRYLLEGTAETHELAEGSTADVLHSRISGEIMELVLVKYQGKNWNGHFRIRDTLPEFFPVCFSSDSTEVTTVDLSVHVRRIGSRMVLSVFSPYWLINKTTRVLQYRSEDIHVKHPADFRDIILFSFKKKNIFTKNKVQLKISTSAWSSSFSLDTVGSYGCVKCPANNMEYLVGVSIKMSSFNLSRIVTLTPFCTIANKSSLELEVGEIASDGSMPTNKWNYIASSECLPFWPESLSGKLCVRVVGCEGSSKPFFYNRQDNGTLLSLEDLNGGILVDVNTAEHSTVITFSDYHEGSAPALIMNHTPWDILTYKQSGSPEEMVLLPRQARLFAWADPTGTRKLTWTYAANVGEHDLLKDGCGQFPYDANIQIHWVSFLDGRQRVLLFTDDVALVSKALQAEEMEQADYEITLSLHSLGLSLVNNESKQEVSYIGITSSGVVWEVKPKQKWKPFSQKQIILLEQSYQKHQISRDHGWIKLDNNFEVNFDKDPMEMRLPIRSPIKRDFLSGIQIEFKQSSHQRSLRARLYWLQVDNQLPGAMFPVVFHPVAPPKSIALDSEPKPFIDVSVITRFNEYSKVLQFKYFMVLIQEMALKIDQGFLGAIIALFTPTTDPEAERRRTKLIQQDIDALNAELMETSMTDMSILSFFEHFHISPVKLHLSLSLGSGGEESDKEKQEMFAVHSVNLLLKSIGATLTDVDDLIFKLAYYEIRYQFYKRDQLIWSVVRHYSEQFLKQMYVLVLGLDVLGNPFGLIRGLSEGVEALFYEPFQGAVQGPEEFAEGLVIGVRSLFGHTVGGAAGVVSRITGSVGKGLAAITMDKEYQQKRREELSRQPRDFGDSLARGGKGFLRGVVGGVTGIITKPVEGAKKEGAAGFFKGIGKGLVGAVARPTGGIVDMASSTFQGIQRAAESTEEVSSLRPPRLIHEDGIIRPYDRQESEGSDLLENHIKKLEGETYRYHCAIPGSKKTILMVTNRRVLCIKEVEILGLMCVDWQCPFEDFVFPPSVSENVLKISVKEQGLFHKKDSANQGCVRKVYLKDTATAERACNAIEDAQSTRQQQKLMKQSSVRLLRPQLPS
UniProt Q9Y6W5, whole entry, looked up: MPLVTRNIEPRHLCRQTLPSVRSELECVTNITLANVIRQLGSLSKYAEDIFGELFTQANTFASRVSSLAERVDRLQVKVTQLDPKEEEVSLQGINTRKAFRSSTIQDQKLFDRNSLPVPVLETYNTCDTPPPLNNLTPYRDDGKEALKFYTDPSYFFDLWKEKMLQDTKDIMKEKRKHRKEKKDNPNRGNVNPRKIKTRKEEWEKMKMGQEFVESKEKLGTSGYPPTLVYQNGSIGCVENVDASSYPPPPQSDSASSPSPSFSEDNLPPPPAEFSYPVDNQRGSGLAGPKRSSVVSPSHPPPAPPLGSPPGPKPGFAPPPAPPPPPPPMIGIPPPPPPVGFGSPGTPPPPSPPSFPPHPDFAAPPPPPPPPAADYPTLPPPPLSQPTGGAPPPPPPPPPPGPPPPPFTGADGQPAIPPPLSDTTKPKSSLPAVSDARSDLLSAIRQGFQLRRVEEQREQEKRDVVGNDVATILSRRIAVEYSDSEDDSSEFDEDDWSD
UniProt Q96AJ9: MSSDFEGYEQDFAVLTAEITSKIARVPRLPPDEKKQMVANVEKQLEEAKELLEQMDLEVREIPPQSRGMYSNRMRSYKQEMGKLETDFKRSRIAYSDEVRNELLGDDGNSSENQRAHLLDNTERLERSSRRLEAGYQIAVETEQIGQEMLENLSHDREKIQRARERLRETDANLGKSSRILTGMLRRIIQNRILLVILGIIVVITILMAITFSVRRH
UniProt Q3ZAQ7: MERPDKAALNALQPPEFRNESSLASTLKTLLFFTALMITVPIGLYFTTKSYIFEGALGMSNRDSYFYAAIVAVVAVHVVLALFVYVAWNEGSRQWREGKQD
UniProt Q9Y2W2: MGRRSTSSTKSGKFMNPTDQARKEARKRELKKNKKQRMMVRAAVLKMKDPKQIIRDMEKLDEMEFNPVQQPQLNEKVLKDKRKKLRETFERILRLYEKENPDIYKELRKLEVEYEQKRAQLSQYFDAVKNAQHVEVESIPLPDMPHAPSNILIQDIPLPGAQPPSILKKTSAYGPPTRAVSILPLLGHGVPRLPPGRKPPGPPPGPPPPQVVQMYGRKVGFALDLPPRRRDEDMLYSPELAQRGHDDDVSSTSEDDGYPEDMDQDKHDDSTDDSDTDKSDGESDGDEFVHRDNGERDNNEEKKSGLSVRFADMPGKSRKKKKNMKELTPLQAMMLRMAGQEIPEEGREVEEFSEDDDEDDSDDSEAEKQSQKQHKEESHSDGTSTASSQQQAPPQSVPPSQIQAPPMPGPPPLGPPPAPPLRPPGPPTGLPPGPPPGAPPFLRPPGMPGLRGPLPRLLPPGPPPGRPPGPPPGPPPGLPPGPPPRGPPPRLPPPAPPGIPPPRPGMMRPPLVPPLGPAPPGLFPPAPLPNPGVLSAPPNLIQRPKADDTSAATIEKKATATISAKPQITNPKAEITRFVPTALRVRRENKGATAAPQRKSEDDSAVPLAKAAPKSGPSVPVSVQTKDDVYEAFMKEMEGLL
UniProt O75351, whole entry, looked up: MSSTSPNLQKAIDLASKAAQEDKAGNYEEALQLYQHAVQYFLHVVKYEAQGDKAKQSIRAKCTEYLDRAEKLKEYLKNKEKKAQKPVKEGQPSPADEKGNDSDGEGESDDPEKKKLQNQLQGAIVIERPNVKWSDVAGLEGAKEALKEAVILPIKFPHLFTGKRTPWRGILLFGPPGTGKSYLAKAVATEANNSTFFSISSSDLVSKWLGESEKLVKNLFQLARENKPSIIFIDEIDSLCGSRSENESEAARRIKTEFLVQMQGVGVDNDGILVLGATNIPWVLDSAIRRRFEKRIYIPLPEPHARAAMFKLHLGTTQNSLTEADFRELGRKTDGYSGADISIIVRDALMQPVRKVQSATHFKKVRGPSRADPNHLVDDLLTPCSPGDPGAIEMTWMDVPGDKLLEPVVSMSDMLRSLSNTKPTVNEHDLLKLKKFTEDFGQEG

What was measured:
Assay in all cases: log2 fold change, soluble protein after heating vs DMSO (PISA); higher = thermal stabilisation; K562 cells, 10 uM, 30 min; active = over 0.2 and 3.5 SD of the protein, either way, in both replicates (recomputed)
[1] = compound: COC1=CC=C(C=C1)CN2C=CC3=C2C=C(C=C3)C(=O)NO
Outline: (§1)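 For each measurement, 10 μM compound was applied for 30 min to K562 cells at 2×10^6 cells/mL. Aliquots were heated for 3 min across 48°C-58°C, pooled, and extracted in PBS with 0.5% NP-40 at 4°C; the supernatant after 21,000xg for 90 min was soluble protein. This was quantified by TMTpro 16plex LC-MS/MS with channel sums equalised, and thermal stability was reported relative to control samples from duplicates, on a log2 fold-change scale.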

[2] = compound: CON(C)C(=O)N1N=C(c2cc(F)ccc2F)S[C@@]1(CCCN)c1ccccc1 [filanesib]
Outline: as §1

[3] = compound: CO[C@H]1C[C@@H]2CC[C@@H](C)[C@@](O)(O2)C(=O)C(=O)N2CCCC[C@H]2C(=O)O[C@H]([C@H](C)C[C@@H]2CC[C@H](n3cnnn3)[C@H](OC)C2)CC(=O)[C@H](C)/C=C(\C)[C@@H](O)[C@@H](OC)C(=O)[C@H](C)C[C@H](C)/C=C/C=C/C=C/1C [zotarolimus]
Outline: as §1

[4] = compound: COc1cc(C(=O)O)ccc1NC(=O)[C@@H]1N[C@@H](CC(C)(C)C)[C@](C#N)(c2ccc(Cl)cc2F)[C@H]1c1cccc(Cl)c1F [idasanutlin]
Outline: as §1

[5] = compound: COc1cc(Nc2ncc3c(n2)-c2ccc(Cl)cc2C(c2c(F)cccc2OC)=NC3)ccc1C(=O)O [alisertib]
Outline: as §1

[6] = compound: COc1cc2nc(-c3cc(F)ccc3O)nc(N[C@@H]3CNC[C@H]3C(C)(C)O)c2cc1OC
Outline: as §1

[7] = compound: COc1cc2ncnc(Nc3ccc(F)c(Cl)c3)c2cc1OCCCN1CCOCC1 [gefitinib]
Outline: as §1

[8] = compound: COc1cccc2cc(-c3nc([C@H]4CC[C@H](C(=O)O)CC4)n4ncnc(N)c34)[nH]c12
Outline: as §1

[9] = compound: CS(=O)(=O)CCNCc1ccc(-c2ccc3ncnc(Nc4ccc(OCc5cccc(F)c5)c(Cl)c4)c3c2)o1 [lapatinib]
Outline: as §1

[10] = compound: CS(=O)(=O)N1CCN(Cc2cc3nc(-c4cccc5[nH]ncc45)nc(N4CCOCC4)c3s2)CC1 [pictilisib]
Outline: as §1

Measured: log2 fold change

WASHC3 (UniProt Q9Y3C0)
inactive: [1] 0.108 | [2] -0.061 | [3] 0.001 | [4] 0.068 | [5] 0.077 | [6] 0.002 | [7] -0.014 | [8] 0.042 | [9] -0.029 | [10] 0.05

VIM (UniProt P08670)
inactive: [1] -0.194 | [2] 0.364 | [3] 0.16 | [4] 0.241 | [5] -0.323 | [6] -0.221 | [7] -0.066 | [8] -0.357 | [9] 0.109 | [10] -0.091

WDR37 isoform 2 (UniProt Q9Y2I8)
inactive: [1] 0.033 | [2] 0.117 | [3] -0.063 | [4] 0.081 | [5] -0.018 | [6] 0.034 | [7] -0.006 | [8] -0.029 | [9] 0.035 | [10] 0.046

WARS (UniProt P23381)
inactive: [1] 0.007 | [2] -0.04 | [3] 0.011 | [4] 0.032 | [5] -0.044 | [6] 0.009 | [7] -0.009 | [8] 0.029 | [9] -0.051 | [10] 0.04

2 consecutive records from above:
WDR37 isoform 2 (UniProt Q9Y2I8)
inactive: [1] 0.033 | [2] 0.117 | [3] -0.063 | [4] 0.081 | [5] -0.018 | [6] 0.034 | [7] -0.006 | [8] -0.029 | [9] 0.035 | [10] 0.046

WARS (UniProt P23381)
inactive: [1] 0.007 | [2] -0.04 | [3] 0.011 | [4] 0.032 | [5] -0.044 | [6] 0.009 | [7] -0.009 | [8] 0.029 | [9] -0.051 | [10] 0.04

Carrying on.

VDAC1 (UniProt P21796)
inactive: [1] 0 | [2] -0.036 | [3] -0.01 | [4] -0.004 | [5] -0.033 | [6] -0.023 | [7] -0.007 | [8] 0.052 | [9] 0 | [10] 0.002

VPS13A (UniProt Q96RL7)
inactive: [1] -0.003 | [2] -0.056 | [3] 0.001 | [4] -0.043 | [5] 0.002 | [6] 0.015 | [7] 0.013 | [8] 0.06 | [9] 0.053 | [10] 0.01

VPS13C (UniProt Q709C8)
inactive: [1] -0.064 | [2] -0.13 | [3] 0.004 | [4] -0.03 | [5] -0.036 | [6] -0.001 | [7] -0.011 | [8] 0.048 | [9] 0.011 | [10] 0.006

VTN (UniProt P04004)
inactive: [1] -0.06 | [2] 0.241 | [3] -0.056 | [4] 0.006 | [5] -0.14 | [6] 0.076 | [7] -0.023 | [8] 0.2 | [9] -0.11

VPS4A (UniProt Q9UN37)
inactive: [1] 0.063 | [2] -0.049 | [3] 0.028 | [4] -0.038 | [5] -0.02 | [6] 0.032 | [7] -0.02 | [8] 0.013 | [9] -0.019 | [10] 0.024

WASF2 (UniProt Q9Y6W5)
inactive: [1] 0.005 | [2] 0.05 | [3] -0.045 | [4] 0.026 | [5] -0.061 | [6] -0.023 | [7] -0.013 | [8] -0.013 | [9] 0.004 | [10] -0.04

VPS45 (UniProt Q9NRW7)
inactive: [1] -0.002 | [2] 0.092 | [3] 0.006 | [4] -0.067 | [5] -0.049 | [6] 0.157 | [7] 0.048 | [8] -0.067 | [9] 0.019 | [10] 0.146

WDR45 (UniProt Q9Y484)
inactive: [1] -0.099 | [2] 0.033 | [3] -0.04 | [4] -0.008 | [5] -0.003 | [6] -0.013 | [7] -0.028 | [8] 0.039 | [9] 0.044 | [10] 0.04

VPS13B (UniProt Q7Z7G8)
inactive: [1] 0.019 | [2] -0.11 | [3] -0.007 | [4] 0.025 | [5] 0.07 | [6] -0.111 | [7] 0.019 | [8] 0.07 | [9] -0.018 | [10] 0.057

WEE1 (UniProt P30291)
inactive: [1] -0.157 | [2] 0.217 | [3] -0.068 | [4] 0.356 | [5] -0.322 | [6] 0.039 | [7] -0.083 | [8] -0.615 | [9] 0.125 | [10] -0.095

WWP2 (UniProt O00308)
inactive: [1] -0.351

WDR18 (UniProt Q9BV38)
inactive: [1] -0.04 | [2] 0.02 | [3] -0.024 | [4] 0.039 | [5] -0.041 | [6] 0.056 | [7] 0.024 | [8] 0.035 | [9] 0.005 | [10] -0.004

WDR1 (UniProt O75083)
inactive: [1] 0 | [2] -0.095 | [3] 0.025 | [4] -0.058 | [5] 0.033 | [6] 0.012 | [7] 0.011 | [8] 0.008 | [9] -0.032 | [10] 0.023

WDR47 (UniProt O94967)
inactive: [1] 0.057 | [2] -0.014 | [3] -0.006 | [4] -0.071 | [5] 0.21 | [6] -0.029 | [7] -0.001 | [8] 0.061 | [9] -0.007 | [10] 0.077

VTI1A (UniProt Q96AJ9)
inactive: [1] 0.014 | [2] -0.015 | [3] -0.024 | [4] -0.023 | [5] -0.039 | [6] -0.003 | [7] 0.024 | [8] 0 | [9] 0.021 | [10] -0.022

VPS35 (UniProt Q96QK1)
inactive: [1] 0.14 | [2] -0.112 | [3] 0.008 | [4] -0.059 | [5] -0.074 | [6] 0.01 | [7] -0.003 | [8] 0.002 | [9] -0.001 | [10] 0.011

VMA21 (UniProt Q3ZAQ7)
inactive: [1] -0.069 | [2] 0.068 | [3] -0.091 | [4] 0.051 | [5] -0.129 | [6] -0.004 | [7] 0.1 | [8] 0.004 | [9] 0.013 | [10] 0.195

VPS26C (UniProt O14972)
inactive: [1] 0.057 | [2] -0.124 | [3] 0.129 | [4] -0.081 | [5] 0.078 | [6] 0.079 | [7] -0.086 | [8] -0.052 | [9] 0.006 | [10] -0.016

WDR61 (UniProt Q9GZS3)
inactive: [1] -0.121 | [2] -0.031 | [3] 0.008 | [4] -0.05 | [5] -0.082 | [6] 0.14 | [7] -0.035 | [8] 0.065 | [9] -0.104 | [10] 0.042

WBP11 (UniProt Q9Y2W2)
inactive: [1] -0.012 | [2] 0.029 | [3] -0.017 | [4] 0.031 | [5] -0.026 | [6] -0.021 | [7] -0.006 | [8] 0.035 | [9] -0.006 | [10] -0.023

VPS4B (UniProt O75351)
inactive: [1] 0.011 | [2] -0.009 | [3] 0.002 | [4] -0.07 | [5] 0.05 | [6] 0.027 | [7] -0.004 | [8] -0.005 | [9] -0.034 | [10] 0.005

WIPF1 isoform 3 (UniProt O43516)
inactive: [1] -0.08 | [2] 0.162 | [3] -0.052 | [4] 0.024 | [5] 0.18 | [6] -0.111 | [7] -0.034 | [8] -0.055 | [9] 0.004 | [10] 0.078

WDHD1 (UniProt O75717)
inactive: [1] 0.013 | [2] -0.003 | [3] 0.031 | [4] 0.005 | [5] 0.036 | [6] 0.011 | [7] 0.013 | [8] -0.012 | [9] 0.006 | [10] -0.015

WASHC5 (UniProt Q12768)
inactive: [1] -0.059 | [2] -0.017 | [3] 0.043 | [4] 0.034 | [5] -0.088 | [6] 0.083 | [7] 0.044 | [8] -0.021 | [9] -0.024 | [10] -0.05
